Source: paper doi:10.1101/2025.11.25.690410

Chains of the proteins cited; added tags and fusions are not shown.
UniProt Q8C0J2: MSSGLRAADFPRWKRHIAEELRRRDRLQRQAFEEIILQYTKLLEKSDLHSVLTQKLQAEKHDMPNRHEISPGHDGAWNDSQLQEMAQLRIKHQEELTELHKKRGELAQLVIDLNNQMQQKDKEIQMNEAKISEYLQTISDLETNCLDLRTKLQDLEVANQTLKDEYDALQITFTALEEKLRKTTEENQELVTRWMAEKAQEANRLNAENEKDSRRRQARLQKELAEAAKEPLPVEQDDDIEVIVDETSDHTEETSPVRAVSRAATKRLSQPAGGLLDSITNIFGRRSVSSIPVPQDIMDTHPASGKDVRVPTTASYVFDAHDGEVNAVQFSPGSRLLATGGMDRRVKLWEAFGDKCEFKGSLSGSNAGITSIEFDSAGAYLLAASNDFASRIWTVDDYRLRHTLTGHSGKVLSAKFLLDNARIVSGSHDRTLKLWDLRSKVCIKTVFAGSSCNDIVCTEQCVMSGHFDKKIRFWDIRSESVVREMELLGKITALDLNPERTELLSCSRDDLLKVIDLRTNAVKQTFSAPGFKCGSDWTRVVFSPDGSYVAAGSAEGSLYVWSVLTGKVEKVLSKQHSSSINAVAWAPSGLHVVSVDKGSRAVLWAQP
UniProt Q8R317: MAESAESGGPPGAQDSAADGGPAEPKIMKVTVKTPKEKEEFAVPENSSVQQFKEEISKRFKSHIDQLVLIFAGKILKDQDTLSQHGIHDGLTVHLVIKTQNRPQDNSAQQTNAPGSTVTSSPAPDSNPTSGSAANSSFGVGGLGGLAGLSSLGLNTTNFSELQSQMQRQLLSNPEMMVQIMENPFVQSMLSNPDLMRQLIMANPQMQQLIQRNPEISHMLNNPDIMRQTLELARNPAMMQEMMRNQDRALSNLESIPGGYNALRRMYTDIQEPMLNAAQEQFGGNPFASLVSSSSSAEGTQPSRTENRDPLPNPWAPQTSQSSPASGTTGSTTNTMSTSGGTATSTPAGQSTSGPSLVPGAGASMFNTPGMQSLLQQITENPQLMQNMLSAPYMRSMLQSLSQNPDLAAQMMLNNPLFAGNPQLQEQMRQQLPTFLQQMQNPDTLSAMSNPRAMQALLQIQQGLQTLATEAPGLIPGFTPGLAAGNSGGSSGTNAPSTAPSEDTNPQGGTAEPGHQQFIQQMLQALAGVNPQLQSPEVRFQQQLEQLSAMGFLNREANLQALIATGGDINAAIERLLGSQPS

Legend:
[1] = target: ATG16L1 (mouse (endogenous in acute cortical slices)) (UniProt Q8C0J2); test: affinity purification with mass spectrometry
[2] = target: ATG16L1 (mouse (endogenous in acute cortical slices)) (UniProt Q8C0J2); test: affinity purification with mass spectrometry; remark: listed apart in the source

B1: Clasp2 (protein, UniProt Q8BRT1 1-1286)
chain: MRRLICKRICDYKSFDDEESVDGNRPSSAASAFKVPAPKTPGNPVSSARKPGSAGGPKVGGPSKEGGAGAVDEDDFIKAFTDVPSVQIYSSRELEETLNKIREILSDDKHDWDQRANALKKIRSLLVAGAAQYDCFFQHLRLLDGALKLSAKDLRSQVVREACITVAHLSTVLGNKFDHGAEAIVPTLFNLVPNSAKVMATSGCAAIRFIIRHTHVPRLIPLITSNCTSKSVPVRRRSFEFLDLLLQEWQTHSLERHAAVLVETIKKGIHDADAEARVEARKTYMGLRNHFPGEAETLYNSLEPSYQKSLQTYLKSSGSVASLPQSDRSSSSSQESLNRPFSSKWSTANPSTVAGRVSVGGSKANPLPGSLQRSRSDIDVNAAAGAKAHHAAGQAVRSGRLGAGALNPGSYASLEDTSDKMDGTASDDGRVRAKLSTPLVAVGNAKTDSRGRSRTKMVSQSQPGSRSGSPGRVLTTTALSTVSSGAQRVLVNSASAQKRSKIPRSQGCSREASPSRLSVARSSRIPRPSVSQGCSREASRESSRDTSPVRSFQPLGPGYGISQSSRLSSSVSAMRVLNTGSDVEEAVADALLLGDIRTKKKPARRRYESYGMHSDDDANSDASSACSERSYSSRNGSIPTYMRQTEDVAEVLNRCASSNWSERKEGLLGLQNLLKNQRTLSRIELKRLCEIFTRMFADPHGKVFSMFLETLVDFIQVHKDDLQDWLFVLLTQLLKKMGADLLGSVQAKVQKALDITRESFPNDLQFNILMRFTVDQTQTPSLKVKVAILKYIETLAKQMDPRDFTNSSETRLAVSRVITWTTEPKSSDVRKAAQSVLISLFELNTPEFTMLLGALPKTFQDGATKLLHNHLRNTGNGTQSSMGSPLTRPTPRSPANWSSPLTSPTNTSQNTLSPSAFDYDTENMNSEDIYSSLRGVTEAIQNFSFRSQEDMSEPVRRDPKKEDGDTICSGPGMSDPRAGGDAADGSQPALDNKASLLHSMPLHSSPRSRDYNPYNYSDSISPFNKSALKEAMFDDDADQFPDDLSLDHSDLVAELLKELSNHNERIEERKIALYELMKLTQEESFSVWDEHFKTILLLLLETLGDKEPTIRALALKVLKEILRHQPARFKNYAELTVMKTLEAHKDPHKEVVRSAEEAASVLATSISPEQCIKVLCPIIQTADYPINLAAIKMQTKVIERVSKETLNMLLPEIMPGLIQGYDNSESSVRKACVFCLVAVHAVIGDELKPHLSQLTGSKMKLLNLYIKRAQTGSAGADPTADVSGQS
- binding [2]: binds

B2: ERC1 (protein, UniProt Q99MI1 1-1120)
chain: MYGSARSVGKVEPSSQSPGRSPRLPRSPRLGHRRTNSTGGSSGNSVGGGSGKTLSMENIQSLNAAYATSGPMYLSDHENVGAETPKSTMTLGRSGGRLPYGVRMTAMGSSPNIASSGVASDTIAFGEHHLPPVSMASTVPHSLRQARDNTIMDLQTQLKEVLRENDLLRKDVEVKESKLSSSMNSIKTFWSPELKKERALRKDEASKITIWKEQYRVVQEENQHMQMTIQALQDELRIQRDLNQLFQQDSSSRTGEPCVAELTEENFQRLHAEHERQAKELFLLRKTLEEMELRIETQKQTLNARDESIKKLLEMLQSKGLSAKATEEDHERTRRLAEAEMHVHHLESLLEQKEKENNMLREEMHRRFENAPDSAKTKALQTVIEMKDSKISSMERGLRDLEEEIQMLKSNGALSSEEREEEMKQMEVYRSHSKFMKNKVEQLKEELSSKDAQGEELKKRAAGLQSEIGQVKQELSRKDTELLALQTKLETLTNQFSDSKQHIEVLKESLTAKEQRAAILQTEVDALRLRLEEKETMLNKKTKQIQDMAEEKGTQAGEIHDLKDMLDVKERKVNVLQKKIENLQEQLRDKEKQMSSLKERVKSLQADTTNTDTALTTLEEALADKERTIERLKEQRDRDEREKQEEIDTYKKDLKDLREKVSLLQGDLSEKEASLLDIKEHASSLASSGLKKDSRLKTLEIALEQKKEECLKMESQLKKAHEATLEARASPEMSDRIQQLEREISRYKDESSKAQTEVDRLLEILKEVENEKNDKDKKIAELESLTSRQVKDQNKKVANLKHKEQVEKKKSAQMLEEARRREDSLSDSSQQLQDSLRKKDDRIEELEEALRESVQITAEREMVLAQEESARTNAEKQVEELLMAMEKVKQELESMKAKLSSTQQSLAEKETHLTNLRAERRKHLEEVLEMKQEALLAAISEKDANIALLELSSSKKKTQEEVAALKREKDRLVQQLKQQTQNRMKLMADNYEDDHFRSSRSNQTNHKPSPDQIIQPLLELDQNRSKLKLYIGHLTALCHDRDPLILRGLTPPASYNADGEQAAWENELQQMTQEQLQNELEKVEGDNAELQEFANTILQQIADHCPDILEQVVNALEESS
- binding [2]: binds

Next, values leading:

- binding [1]: binds
Molecule: Ubqln1 (from UniProt Q8R317 1-582)

- binding [2]: binds
B3: Rab5b (protein, UniProt P61021 1-215)
chain: MTSRSTARPNGQPQASKICQFKLVLLGESAVGKSSLVLRFVKGQFHEYQESTIGAAFLTQSVCLDDTTVKFEIWDTAGQERYHSLAPMYYRGAQAAIVVYDITNQETFARAKTWVKELQRQASPSIVIALAGNKADLANKRMVEYEEAQAYADDNSLLFMETSAKTAMNVNDLFLAIAKKLPKSEPQNLGGAAGRSRGVDLHEQSQQNKSQCCSN

Where two headings read alike, the source gives them in different places. These are yes or no findings as the source states them, for the method shown. In cells and extracts the contact can be indirect. A yes stands for co-enrichment or nearness to the bait. Other partners may have been found. One block for each molecule: values may come before it.
